Some entries repeat one wording, which the source may state once for all of them.
Legend:
[1] = Power generation performance of electrochemical cell with different amines, Cu/Cu^2+ as the redox couple; conditions: 2M amines, 0.1 M Cu(II); for CO2 loading in cathode: CO2-loaded catholyte, room temperature (20-22° C.); for CO2 loading in cathode / Open circuit potential: 1 M NH4NO3 or 1 M KNO3; for Measured maximum power density / Open circuit potential: Cu/Cu^2+, 20-22° C.; for Measured maximum power density: calculated based on the effective membrane area; for Open circuit potential: catholyte CO2-loaded, anolyte non CO2-loaded
[2] = addition of Me(II) ions in ammonia based electrolytes; suppression order Ni(II)>Cu(II)>Zn(II); cited from earlier work

Compound	CO2 loading in cathode [1]	Measured maximum power density [1]	Open circuit potential [1]	Ammonia loss in absorption and regeneration processes [2]
OCCNCCO [Diethanolamine]	0.55	1.56 W/m^2	0.14 v	
CNCC(=O)O [Sarcosine]	0.48	0.52 W/m^2	0.145 v	
N [Ammonia]	0.5	0.96 W/m^2	0.09 v	
[Cu+2] [Cu^2+]				significantly reduced ammonia loss
NCc1cccc(CN)c1 [m-Xylylenediamine]	0.81	4.20 W/m^2	0.28 v	
NCCCn1ccnc1 [1-(3-aminopropyl)-imidazole, 1-(3-aminopropyl)imidazole]	0.75	0.81 W/m^2	0.12 v	
NCCO [Ethanolamine]	0.49	2.17 W/m^2	0.214 v	
NCCN [Ethylenediamine]	0.96	2.93 W/m^2	0.24 v	
3-Amino-1-propanol	0.64	2.73 W/m^2	0.268 v	
C[C@@H](O)[C@H](N)C(=O)O [L-Threonine]	0.45	0.79 W/m^2	0.096 v	
N[C@@H](CO)C(=O)O [L-Serine]	0.48	0.49 W/m^2	0.092 v	
NCCCCCO [5-Amino-1-pentanol]	0.56	2.82 W/m^2	0.218 v	
O=C(O)[C@@H]1CCCN1 [L-Proline]	0.59	0.91 W/m^2	0.182 v	
C1CNCCN1 [Piperazine]	0.84	2.88 W/m^2	0.21 v	
CC1CCNCC1 [4-methylpiperidine]	0.56	0.91 W/m^2	0.13 v	
Pyrrolidine	0.61	1.05 W/m^2	0.2 v	

Compound	CO2 loading in cathode [1]	Measured maximum power density [1]	Open circuit potential [1]	Ammonia loss in absorption and regeneration processes [2]
NCCCCCCN [hexamethylenediamine]	1.1	2.88 W/m^2	0.24 v	
1,3 Diaminopropane	1.0	3.23 W/m^2	0.25 v	
C[C@H](N)C(=O)O [L-Alanine]	0.51	1.48 W/m^2	0.20 v	
CC(N)(CO)CO [2-amino-2-methyl-1 3-propanediol, 2-amino-2-methyl-1 3-propanediol]	0.63	1.25 W/m^2	0.14 v	
N[C@@H](CCC(=O)O)C(=O)O [Glutamic acid]	0.28	0.27 W/m^2	0.11 v	
CCCCCN [Amylamine]	0.5	4.83 W/m^2	0.27 v	
NCC(=O)O [Glycine]	0.50	1.21 W/m^2	0.144 v	
CN(C)CCCN [3-(dimethylamino)-1-propylamine, 3-(dimethylamino)-1-propylamine]	1.03	2.6 W/m^2	0.21 v	
CCCCN [Butylamine]	0.5	2.37 W/m^2	0.19 v	
CCCN [Propylamine]	0.61	3.52 W/m^2	0.22 v	
NCCOCCO [2-(2-Aminoethoxy)-ethanol, 2-(2-Aminoethoxy)ethanol]	0.52	3.34 W/m^2	0.22 v	
[Ni+2] [Ni^2+]				significantly reduced ammonia loss
N=C(N)NCCC[C@H](N)C(=O)O [L-Arginine]	1.28	0.15 W/m^2	0.09 v	
CC(O)CNCC(C)O (stereo not drawn) [bis(2-hydroxypropyl)-amine, bis(2-hydroxypropyl)amine]	0.47	0.76 W/m^2	0.12 v	
[Zn+2] [Zn^2+]				significantly reduced ammonia loss

From patent US20190027771A1, “ACID GAS REGENERABLE BATTERY” (Commonwealth Scientific and Industrial Research Organisation, priority 2015, published 2019)
